doi:10.1101/2025.11.17.688253
No constants are given. Whether binding was seen depends on the method and setting. Binding seen in cells or lysates may run through a third protein. Some entries that bind do so weakly or less than the wild type.

Chains of the proteins cited; added tags and fusions are not shown. Residues count along the entry.
UniProt P11688, residues 45-1053: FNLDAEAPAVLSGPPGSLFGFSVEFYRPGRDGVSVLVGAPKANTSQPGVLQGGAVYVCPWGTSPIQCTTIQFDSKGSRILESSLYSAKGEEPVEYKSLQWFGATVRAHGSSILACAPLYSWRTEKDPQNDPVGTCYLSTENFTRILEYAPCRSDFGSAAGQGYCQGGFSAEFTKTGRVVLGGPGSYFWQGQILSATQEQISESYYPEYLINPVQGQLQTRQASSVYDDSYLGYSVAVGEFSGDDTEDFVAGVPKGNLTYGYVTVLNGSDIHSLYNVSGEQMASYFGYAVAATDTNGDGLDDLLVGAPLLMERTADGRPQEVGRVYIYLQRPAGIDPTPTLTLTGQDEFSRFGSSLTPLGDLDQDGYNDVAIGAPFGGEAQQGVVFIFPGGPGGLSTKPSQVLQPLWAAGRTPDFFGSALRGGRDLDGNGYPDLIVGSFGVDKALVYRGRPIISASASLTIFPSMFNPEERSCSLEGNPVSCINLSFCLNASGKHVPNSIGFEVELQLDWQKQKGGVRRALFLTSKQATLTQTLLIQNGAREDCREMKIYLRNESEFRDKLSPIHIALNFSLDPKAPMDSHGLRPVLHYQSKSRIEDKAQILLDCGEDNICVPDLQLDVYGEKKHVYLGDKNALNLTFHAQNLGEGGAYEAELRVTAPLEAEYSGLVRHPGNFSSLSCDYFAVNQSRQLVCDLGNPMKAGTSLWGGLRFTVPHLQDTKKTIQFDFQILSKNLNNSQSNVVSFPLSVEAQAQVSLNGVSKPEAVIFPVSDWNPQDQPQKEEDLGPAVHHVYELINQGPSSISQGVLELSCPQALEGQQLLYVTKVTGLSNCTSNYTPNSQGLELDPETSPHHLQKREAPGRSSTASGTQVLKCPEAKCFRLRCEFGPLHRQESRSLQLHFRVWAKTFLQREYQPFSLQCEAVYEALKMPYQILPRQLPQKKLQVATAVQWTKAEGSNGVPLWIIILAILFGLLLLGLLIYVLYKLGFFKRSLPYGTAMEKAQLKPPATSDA

How the values were obtained:
[1] = molecular target: Integrin α5 (mouse (endogenous in C2C12)) (UniProt P11688); assay: proximity ligation
[2] = molecular target: T1, Integrin αv (mouse (endogenous in C2C12)) (UniProt P43406); assay: proximity ligation
T1 sequence: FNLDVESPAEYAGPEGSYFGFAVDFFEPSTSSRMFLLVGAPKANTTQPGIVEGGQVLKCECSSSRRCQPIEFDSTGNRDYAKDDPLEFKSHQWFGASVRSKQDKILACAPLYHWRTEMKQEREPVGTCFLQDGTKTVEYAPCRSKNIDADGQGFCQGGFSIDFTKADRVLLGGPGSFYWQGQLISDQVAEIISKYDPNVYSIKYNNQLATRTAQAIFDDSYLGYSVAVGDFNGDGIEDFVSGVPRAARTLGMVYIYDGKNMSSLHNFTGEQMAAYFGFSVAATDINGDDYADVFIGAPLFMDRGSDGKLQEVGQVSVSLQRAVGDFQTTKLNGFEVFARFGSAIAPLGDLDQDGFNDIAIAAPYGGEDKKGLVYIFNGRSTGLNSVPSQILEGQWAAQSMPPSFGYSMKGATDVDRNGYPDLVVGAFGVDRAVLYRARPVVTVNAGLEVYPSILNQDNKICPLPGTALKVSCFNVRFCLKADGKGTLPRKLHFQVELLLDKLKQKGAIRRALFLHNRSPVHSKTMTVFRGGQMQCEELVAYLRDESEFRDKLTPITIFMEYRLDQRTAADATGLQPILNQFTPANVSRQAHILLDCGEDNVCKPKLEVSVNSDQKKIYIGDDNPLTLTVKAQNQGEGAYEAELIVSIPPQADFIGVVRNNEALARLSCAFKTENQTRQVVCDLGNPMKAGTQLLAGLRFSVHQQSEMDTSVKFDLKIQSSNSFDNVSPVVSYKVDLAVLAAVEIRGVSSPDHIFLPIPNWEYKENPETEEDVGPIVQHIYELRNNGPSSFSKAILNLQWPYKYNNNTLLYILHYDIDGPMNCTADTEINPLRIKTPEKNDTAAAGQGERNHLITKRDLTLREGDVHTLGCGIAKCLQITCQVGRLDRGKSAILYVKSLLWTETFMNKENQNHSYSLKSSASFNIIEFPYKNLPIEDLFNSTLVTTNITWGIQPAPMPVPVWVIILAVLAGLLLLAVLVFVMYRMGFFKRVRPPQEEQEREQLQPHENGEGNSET

binding [1]: binds
binding [2]: binds
B1: NaBC1 borate transporter (SLC4A11) (protein, UniProt A2AJN7 1-862)
chain: MSQNEHCQDSGEYFSAGTQGYFKNNMEDNLEVREDSLGDEVFDTVNSSIVSGESIRFFVNVNLEVQPSKSDLEAATGGCVLLHTSRKYLKLKNFEEEVRAHRDLDGFLAQASIILNETATSLDDVLRTMLNRFALDPNHAEPDCDLDLLMAKLFTDAGAPMESKVHLLSDTIQGVTATVRGVQYEQSWLCIICTMKTLQKRHVCISRLVRPQNWGENSCEVRFVILVLAPPKMKSTKTAMEVARTFATMFSDITFRQKLLKTRTEEEFKEALVHQRQLLTMMMPRAAGHSMSSLHTHRHPQPPKCKDFFPFGKGIWMDIMRRFPVYPMDFTDGIIGKSKSVGKYVTTTLFLYFACLLPTIAFGSLNDENTNGAIDVQKTIAGQSIGGLLYALFSGQPLVILLTTAPLAIYTQVIRVICDDYNLDFNAFYAWTGLWNSFFLALYAFLNLSLLMNLFKRSTEEIIALFISITFVLDAVKGMVKIFGKYYYGHHYHTKRTSSLVSLLGIGRSPNSSLHTALNASLLASPVEMATTSSPGSTHSGQATAVLSLLIMLGTLWLGYTLYQFKKSPYLHPCVRETLSDCALPIAVLSFSLIGSYGFQEIEMSKFRYNPSESLFEVAQIHSLSFKAIGSAMGLGFLLSLLFFIEQNLVAALVNAPENRLVKGTAYHWDLLLLAIINTGLSLFGLPWIHAAYPHSPLHVRALALVEERVENGHIYETIVDVKETRLTALGASVLVGLSLLLLPFPLQWIPKPVLYGLFLYIALTSLDGNQLFSRVALLLKEQTSYPPTHYIRRVPQRKIHYFTGLQILQLLLLCAFGMSSLPYMKMVFPLIMIAMIPIRYNLLPRIIEAKYLDVMDAEHRP
